This is one part of the list.
What follows are compounds tested on T1, CTL2-GFP (C. trachomatis L2/434/Bu, GFP-expressing). Conditions: bulk GFP, single well; 28.5 h, 10 µM; inhibitor.
T1 construct: L2/434/Bu, GFP-expressing
Parameters: species or system HeLa; Intracellular C. trachomatis growth in HeLa cells, bulk GFP fluorescence relative to DMSO

Row | Compound | % of control remaining [%]
1 | CC(=O)N1N=C(COc2ccc3c(c2)OCO3)OC1c1ccc(C)cc1 (stereo not shown) [CBK294397] | 166.389
2 | O=C(O)C1=CC(c2ccccc2)=NS(=O)(=O)N1 [CBK286828] | 85.455
3 | O=C1Cc2cc3ccccc3cc2C2(CCN(C(=O)C3CCC3C(=O)O)CC2)N1 (stereo not shown) [CBK047252] | 111.288
4 | Cc1nc2ccc(C(=O)NCCN3CCc4ccccc43)cc2[nH]1 [CBK283280] | 124.215
5 | OC1(c2nnsc2-c2ccccc2)CCCC1 [CBK007956] | 103.447
6 | COc1ccccc1CNC(=O)c1ccc(=O)[nH]c1 [CBK288133] | 111.562
7 | Cc1cc(C)n(CC(=O)NCC(c2cccs2)N2CCOCC2)n1 (stereo not shown) [CBK305620] | 132.112
8 | O=C(NC1CCCCC1)[C@H]1CN2CCC1C[C@@H]2Cn1cc(CO)nn1 (stereo partly shown) [CBK289086] | 127.417
9 | O=C(NCCSCc1ccco1)C1CCC1 [CBK057516] | 100.328
10 | CCN(CC)CCNC(=O)c1ccc(C(=O)O)c(C)n1 [CBK304248] | 107.857
11 | COc1ccc(OCCN(C)c2cnn(-c3ccc(C(=O)O)cc3)c(=O)c2Cl)cc1 [CBK296627] | 136.8
12 | O=C(c1ccco1)N1C2CCC1CC(O)(c1cccnc1F)C2 (stereo not shown) [CBK284417] | 118.15
13 | Cc1[nH]c(=O)[nH]c1C(=O)CCCCC(=O)O [CBK263197] | 116.736
14 | Cc1cc(=O)c2ccccc2n1CC(=O)N1CCNC(=O)C1C (stereo not shown) [CBK306511] | 130.686
15 | Cc1csc(C(Cc2cccs2)NCC2CCOC2)n1 (stereo not shown) [CBK285051] | 106.484
16 | NC(=O)CN1CC2(CCN(CC(=O)Nc3ccc(F)c(Cl)c3)CC2)c2ccccc21 [CBK126790] | 99.8449
17 | O=C(CCC(=O)c1ccccc1)Nc1ccccc1N1CCNCC1 [CBK028284T] | 115.233
18 | CCOC(=O)c1sc2ccc(NC(C)=O)cc2c1C [CBK021052] | 148.525
19 | O=C(Nc1ccccc1-c1nc2ccccc2[nH]1)c1ccc2c(c1)OCCO2 [CBK293924] | 171.459
20 | O=C(Nc1cccc(C(F)(F)F)c1)N1CCN(CCCCc2ccc(F)cc2)CC1 [CBK013363C] | 123.437
21 | CCOc1ccc(-c2c(C3CC3)n[nH]c2N)cc1OCC [CBK288177] | 99.0662
22 | Cc1nc(-c2ccccc2)c(CC(=O)NC2CCCOC2)s1 (stereo not shown) [CBK282586] | 86.2229
23 | O=C(NCC1CCCO1)c1ccc(NC(=O)C2CC=CCC2C(=O)O)cc1 (stereo not shown) [CBK266335] | 221.275
24 | c1csc(CCN2CCC3(C2)NCCc2c3[nH]c3ccccc23)c1 (stereo not shown) [CBK040196] | 135.436
25 | O=C(O)C(Cc1ccccc1)N1C(=O)/C(=C/C(Cl)=C/c2ccc([N+](=O)[O-])cc2)SC1=S (stereo not shown) [CBK263523] | 115.184
26 | O=C(Cn1cccn1)NC(Cc1cccs1)c1nccs1 (stereo not shown) [CBK285136] | 111.779
27 | Cc1c(C(=O)N2CCCCC2CN2CCOCC2)[nH]c2c(F)cccc12 (stereo not shown) [CBK306751] | 93.969

2 of the compounds above, as labelled records:
Cc1nc2ccc(C(=O)NCCN3CCc4ccccc43)cc2[nH]1 [CBK283280]
  % of control remaining [%]: 124.215
COc1ccc(OCCN(C)c2cnn(-c3ccc(C(=O)O)cc3)c(=O)c2Cl)cc1 [CBK296627]
  % of control remaining [%]: 136.8

(more compounds)

Row | Compound | % of control remaining [%]
28 | Clc1ccc(-c2cc(NC3CCCCC3)ncn2)cc1 [CBK090902] | 176.458
29 | COc1cc(/C=C2/S/C(=N\c3ccccc3)NC2=O)ccc1OCc1ccccc1[N+](=O)[O-] [CBK262165] | 100
30 | CC(=O)Nc1cccc(Oc2nccnc2-c2ccc(C)cc2C)c1 [CBK106986] | 73.3448
31 | O=C(NC1CCCC1)c1ccc(Cl)cc1Cl [CBK002108] | 118.611
32 | Oc1ccc(C2N=C(c3ccccc3)N=C(c3ccccc3)N2)cc1 (stereo not shown) [CBK018755] | 121.107
33 | CC(=O)Nc1ccc(NC(=O)c2cnc(-c3cccc(C)c3)c(-c3ccncc3)c2)cc1C(F)(F)F [CBK036660] | 162.74
34 | COc1ccc(-c2cc3ccc(OC(C)C(=O)O)cc3oc2=O)cc1 (stereo not shown) [CBK267947] | 99.3237
35 | O=c1[nH]c(=O)c2cc(S(=O)(=O)NC(c3ccccc3)c3ccccc3)ccc2[nH]1 [CBK286375] | 102.827
36 | Cc1nc[nH]c1CN(Cc1cccc(F)c1)CC1CCCO1 (stereo not shown) [CBK282525] | 136.698
37 | CC(=O)NCC1CCC(C(NC(=O)C2CC2)c2ccccn2)CC1 (stereo not shown) [CBK283000] | 112.865
38 | CCCn1cc(NC(=O)NC(C)(CC)CO)ccc1=O (stereo not shown) [CBK304864] | 121.549
39 | Fc1ccc(COc2ccc3ccccc3c2CNc2nn[nH]n2)cc1 [CBK268211] | 117.89
40 | CC(C)n1cc(C(=O)N2CCC(c3cc4ncccc4[nH]3)CC2)cn1 [CBK283392] | 119.618
41 | CSc1nc(N)cc(N2CCN(C(=O)OC(C)(C)C)CC2)n1 [CBK003458] | 95.0425
42 | NS(=O)(=O)c1ccc(NC(=S)NNC(=O)C2c3ccccc3Oc3ccccc32)cc1 [CBK267024] | 129.676
43 | Cc1ccc(C(=O)NCCN2CCOCC2)c(N2CCOCC2)n1 [CBK106201] | 165
44 | Cc1cc(C(=O)NC2(C#N)CCSCC2)n(C)n1 [CBK306386] | 120.596
45 | COc1cc2c(cc1OC)CN(C(=O)Cc1ccccc1)CC2 [CBK122751] | 119.366
46 | CN(C)CCC1OC(=O)N(c2ccccc2)C1=O (stereo not shown) [CBK010134C] | 124.545
47 | Cc1cc(Cl)cc(Cl)c1S(=O)(=O)Nc1nc(-c2cccc([N+](=O)[O-])c2)cs1 [CBK000902] | 115.852
48 | C=CCNC(=O)C1CC2CCC1(C)C[C@@]21NC(=O)c2ccccc2N1 (stereo partly shown) [CBK284442] | 119.865
49 | CCOc1cc(NC2CCN(C(=O)CC3(O)CCCCC3)CC2)ncn1 [CBK304141] | 112.446
50 | O=C(Nc1ccc(I)cc1C(=O)Nc1cccnc1)c1ccccc1Cl [CBK266154] | 102.721
51 | CC(C)CN1C(=O)COC[C@@H]1[C@H](O)c1ccc(NC(=O)c2cccnc2)cc1 [CBK289692] | 121.638
52 | CN(C)CCN(CC#Cc1ccccc1)CC#Cc1ccccc1 [CBK265035C] | 130.899
53 | CN1C(=O)C2(CC(=O)N(CC3CCCCC3)C2=O)c2cc(F)ccc21 (stereo not shown) [CBK075257] | 104.403
54 | COc1cccc(CC(=O)N2CCC(Cc3ccc(-c4ccccc4)cc3)(C(N)=O)CC2)c1 [CBK285776] | 118.942

Row | Compound | % of control remaining [%]
55 | COc1ccccc1NC(=O)N(CC(C)C)CC(C)C [CBK005456] | 106.685
56 | O=C1CCC(=O)N1CCOc1nccnc1N1CCN(Cc2ccccc2F)CC1 [CBK084289] | 116.875
57 | C=CCOc1cccn2c(N(C=O)Cc3ccccc3)c(CC)nc12 [CBK147827] | 100.716
58 | CC(C)(C)c1cc(/C=N/Nc2nc3ccccc3[nH]2)cc(C(C)(C)C)c1O [CBK262247] | 66.6906
59 | Cc1cccc(C2CCCN(C(=O)Nc3cnn(C)c3)C2)c1 (stereo not shown) [CBK306961] | 105.255
60 | CCn1ncc(CN2CCCC(c3cc4cccnc4[nH]3)C2)c1C (stereo not shown) [CBK284700] | 122.229
61 | CN1CCC(=NNC(=O)c2ccc(CN(c3ccccc3)S(C)(=O)=O)cc2)CC1 [CBK262728] | 104.945
62 | Cc1ccc(NC(=O)c2ccc3c(c2)C(=O)N(c2cccc(N4C(=O)c5ccc(C(=O)Nc6ccc(C)cc6)cc5C4=O)n2)C3=O)cc1 [CBK261198] | 99.2507
63 | CN1CC[C@@]2(c3cc(F)cc(F)c3)CCC(=O)CC12 (stereo partly shown) [CBK002500] | 88.1776
64 | Cc1c(NS(=O)(=O)c2cc(C(=O)O)c(Cl)cc2Cl)c(=O)n(-c2ccccc2)n1C [CBK296123] | 141.391
65 | COCOc1ccc(-c2nc(-c3cccc(NS(C)(=O)=O)c3)cnc2N)cc1 [CBK063985] | 87.161
66 | c1ccc(CCN2CCC(Oc3nccnc3OCCN3CCOCC3)CC2)nc1 [CBK082944] | 113.316
67 | CC(C)(C)c1nnc([C@H]2CCN(C(=O)CCC(=O)O)C2)o1 [CBK289406] | 115.499
68 | N#CCCCN1CCN(c2nccnc2OCc2cccnc2)CC1 [CBK083144] | 89.2887
69 | Nc1c(-c2ccc3c(c2)CCO3)cnc2ncccc12 [CBK083678] | 119.846
70 | COc1ccc2c(c1)C(O)CC1(CCN(CC(O)c3ccc(-c4ccccc4)cc3)CC1)O2 (stereo not shown) [CBK286398] | 170.41
71 | Cc1ccccc1-n1ncc2c(N3CCCC3)ncnc21 [CBK287648] | 92.1441
72 | CN(C)CC(C)(C)CNC(=O)c1cc(-c2ccc(C(=O)N3CCOCC3)cc2)cnc1N [CBK158574] | 100
73 | O=[N+]([O-])c1ccc(Oc2ccccc2)nc1 [CBK002726] | 136.712
74 | Cc1ccc2nc(NC(=O)C3COc4ccccc4O3)sc2c1 (stereo not shown) [CBK287366] | 109.561
75 | COc1ccc(N(C(C)C(=O)NN=C2CCN(C)CC2)S(C)(=O)=O)cc1 (stereo not shown) [CBK262390] | 100
76 | CCCCNC(=O)c1ccc2nc(C)c(N(C)CC3CCCCC3)n2c1 [CBK145913] | 85.4518
77 | O=C1COc2ccccc2CCCC[C@@H]2CNCC[C@H]2N1 [CBK292038] | 126.462
78 | NS(=O)(=O)c1ccc(CCNC(=O)c2ccc([N+](=O)[O-])cc2)cc1 [CBK263773] | 98.1436
79 | O=C(Cn1cnc2ccccc2c1=O)NCCc1ccsc1 [CBK287844] | 125.419

Of the compounds above, these contain a cyano group:
Row | Compound | % of control remaining [%]
44 | Cc1cc(C(=O)NC2(C#N)CCSCC2)n(C)n1 [CBK306386] | 120.596
68 | N#CCCCN1CCN(c2nccnc2OCc2cccnc2)CC1 [CBK083144] | 89.2887

Source: publication PMC12040169 (PLOS Biology, 2025)
